Measured values reported in PMC12229345.

Protein sequences, listed by entry. Tags and fused reporters are not part of them. Residues count along the entry.
UniProt O75973, residues 17-258: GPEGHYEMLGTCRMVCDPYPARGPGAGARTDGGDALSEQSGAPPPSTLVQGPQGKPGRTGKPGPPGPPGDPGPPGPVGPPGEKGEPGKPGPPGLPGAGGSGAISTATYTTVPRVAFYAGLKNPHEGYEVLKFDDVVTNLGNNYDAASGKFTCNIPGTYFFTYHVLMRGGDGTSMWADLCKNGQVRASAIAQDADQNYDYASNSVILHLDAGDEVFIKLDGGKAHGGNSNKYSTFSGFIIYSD
UniProt P27824, residues 21-592: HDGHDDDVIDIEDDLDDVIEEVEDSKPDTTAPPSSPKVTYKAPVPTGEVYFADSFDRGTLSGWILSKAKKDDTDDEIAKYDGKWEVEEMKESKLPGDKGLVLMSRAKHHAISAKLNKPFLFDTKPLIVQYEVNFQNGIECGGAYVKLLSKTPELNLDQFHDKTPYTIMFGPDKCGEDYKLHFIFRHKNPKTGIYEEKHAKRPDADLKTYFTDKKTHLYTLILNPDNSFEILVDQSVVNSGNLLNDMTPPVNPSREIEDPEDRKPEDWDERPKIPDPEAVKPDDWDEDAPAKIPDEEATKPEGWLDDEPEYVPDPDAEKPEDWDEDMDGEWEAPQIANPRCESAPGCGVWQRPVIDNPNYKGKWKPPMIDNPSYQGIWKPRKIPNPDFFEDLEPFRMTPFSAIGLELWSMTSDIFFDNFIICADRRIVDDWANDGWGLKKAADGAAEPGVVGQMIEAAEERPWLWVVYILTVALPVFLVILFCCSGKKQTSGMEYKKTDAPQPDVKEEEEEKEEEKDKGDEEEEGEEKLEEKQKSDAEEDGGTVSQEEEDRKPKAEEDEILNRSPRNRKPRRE
UniProt P07237, residues 18-508: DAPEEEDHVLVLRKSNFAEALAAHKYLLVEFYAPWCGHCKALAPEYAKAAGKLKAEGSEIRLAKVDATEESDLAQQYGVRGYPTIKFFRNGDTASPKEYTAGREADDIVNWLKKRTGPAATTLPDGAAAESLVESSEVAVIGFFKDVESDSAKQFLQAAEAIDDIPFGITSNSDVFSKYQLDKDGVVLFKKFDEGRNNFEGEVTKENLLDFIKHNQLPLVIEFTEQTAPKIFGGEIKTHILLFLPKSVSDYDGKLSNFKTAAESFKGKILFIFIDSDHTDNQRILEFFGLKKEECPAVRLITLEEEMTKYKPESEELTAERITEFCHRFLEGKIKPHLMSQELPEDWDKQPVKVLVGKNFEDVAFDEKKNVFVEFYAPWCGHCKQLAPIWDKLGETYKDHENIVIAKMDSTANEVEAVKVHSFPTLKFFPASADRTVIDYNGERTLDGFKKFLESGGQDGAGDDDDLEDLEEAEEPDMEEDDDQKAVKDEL
UniProt P14625, residues 22-803: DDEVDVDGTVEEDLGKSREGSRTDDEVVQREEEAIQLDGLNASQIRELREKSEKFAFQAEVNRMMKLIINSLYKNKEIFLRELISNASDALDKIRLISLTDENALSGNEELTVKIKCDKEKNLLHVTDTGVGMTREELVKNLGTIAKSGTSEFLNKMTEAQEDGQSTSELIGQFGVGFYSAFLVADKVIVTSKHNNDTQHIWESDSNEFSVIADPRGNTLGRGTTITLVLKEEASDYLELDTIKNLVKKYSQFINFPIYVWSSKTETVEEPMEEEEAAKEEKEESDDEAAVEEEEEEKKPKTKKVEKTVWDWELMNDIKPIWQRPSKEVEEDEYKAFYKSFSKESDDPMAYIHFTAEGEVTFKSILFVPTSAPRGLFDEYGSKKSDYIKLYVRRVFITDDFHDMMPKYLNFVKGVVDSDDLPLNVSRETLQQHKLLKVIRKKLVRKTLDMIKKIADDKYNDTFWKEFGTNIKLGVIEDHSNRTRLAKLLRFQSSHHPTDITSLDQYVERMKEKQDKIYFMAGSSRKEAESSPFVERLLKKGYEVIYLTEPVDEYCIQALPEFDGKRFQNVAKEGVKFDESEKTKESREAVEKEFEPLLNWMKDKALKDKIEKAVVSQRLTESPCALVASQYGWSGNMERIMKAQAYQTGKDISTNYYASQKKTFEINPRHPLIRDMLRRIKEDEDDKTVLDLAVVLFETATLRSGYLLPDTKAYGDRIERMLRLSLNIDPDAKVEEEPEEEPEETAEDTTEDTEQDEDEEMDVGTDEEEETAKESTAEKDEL
UniProt P30101, residues 25-505: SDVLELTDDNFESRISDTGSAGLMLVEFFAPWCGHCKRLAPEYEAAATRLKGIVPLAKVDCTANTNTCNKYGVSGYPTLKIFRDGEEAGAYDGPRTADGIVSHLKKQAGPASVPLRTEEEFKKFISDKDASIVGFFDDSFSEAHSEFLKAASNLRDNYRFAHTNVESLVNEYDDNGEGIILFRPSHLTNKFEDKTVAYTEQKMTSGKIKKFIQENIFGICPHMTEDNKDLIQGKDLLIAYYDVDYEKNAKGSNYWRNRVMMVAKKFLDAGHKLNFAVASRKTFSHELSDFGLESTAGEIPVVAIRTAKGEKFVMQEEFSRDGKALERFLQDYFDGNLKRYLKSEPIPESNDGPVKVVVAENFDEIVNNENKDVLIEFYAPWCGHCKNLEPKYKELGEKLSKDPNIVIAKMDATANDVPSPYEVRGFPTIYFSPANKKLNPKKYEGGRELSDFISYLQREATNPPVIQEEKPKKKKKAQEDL

Target: C1QL1-FLAG (complement component 1, q subcomponent-like 1), stably expressed in MDA-MB-231 and MDA-MB-468 cells (UniProt O75973)
Experiment: affinity purification with mass spectrometry; lysates of MDA-MB-231 and MDA-MB-468 cells stably expressing C1QL1; co-IP with anti-Flag or anti-IgG, then LC-MS/MS

binding | Substance
binds | Calnexin (CANX), endogenous in MDA-MB-231 and MDA-MB-468 cells (from UniProt P27824 21-592)
binds | valosin-containing protein (VCP), endogenous in MDA-MB-231 and MDA-MB-468 cells (from UniProt P55072 1-806)
binds | P4HB, endogenous in MDA-MB-231 and MDA-MB-468 cells (from UniProt P07237 18-508)
binds | HSP90B1 (GRP94), endogenous in MDA-MB-231 and MDA-MB-468 cells (from UniProt P14625 22-803)
binds | heat shock protein 90α (HSP90α), endogenous in MDA-MB-231 and MDA-MB-468 cells (from UniProt P07900 1-732)
binds | PDIA3 (ERP57), endogenous in MDA-MB-231 and MDA-MB-468 cells (from UniProt P30101 25-505)

Results are given in words; binding and its absence hold for the method and conditions named. Binding seen in cells or lysates may run through a third protein. These calls come from enrichment with a bait or labelling near it, and not all partners need be listed.
